Out of some 400,000 compounds screened, about 5,500 (1.4%) were called active. The shares of active, inactive and inconclusive entries below differ from those in the screen. The call rests on the fitted dose curve; in most records, active means well fitted cell-killing curve with a large enough effect; inconclusive means small, poorly fitted or top-dose-only effect, or effect the other way; inactive means flat fitted curve, though single readings scatter. Where the call is inconclusive, the potency comes from a doubtful curve fit.
assay: qHTS assay for MDR1-selective chemotherapeutics: Primary screen using the parental adenocarcinoma cell KB-3-1; settings: KB-3-1 viability, CellTiter-Glo ATP luminescence, 72 h; activity change, negative = cytotoxic: at 46.1 µM (top of the series); further: nearly all actives have a fitted effect of over 60% in size
Outline: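 Cells are dispensed, compounds pinned in, plates held at 37 °C for 72 h, then CellTiter-Glo is added and luminescence read after 10 minutes. Cell line: parental KB-3-1 in phenol-red-free DMEM, 10% FBS.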
On the % scale 0 is the no-effect control and ±100 the full control effect; potency means the concentration at half of the fitted maximal effect.

| Structure (SMILES) | Potency | activity change, negative = cytotoxic |
| --- | --- | --- |
| N#C/C(=C(/O)c1ccc([N+](=O)[O-])s1)c1nc2ccccc2[nH]1 | inconclusive: 2.06 µM [cytotoxic, full curve, poor fit] |  |
| NC(=O)c1ccc(Cn2c(C(=O)c3cc(Cl)c(N)c(Cl)c3)c3ccccc3[n+]2[O-])cc1 | inconclusive: 23.1 µM [cytotoxic, partial curve, poor fit] |  |
| Cc1ccc2c(CSc3nncn3C)cc(=O)oc2c1C |  | inactive: -1.76% |
| COc1ccc(/C=N/Nc2cc(N(C)C)nc(N(C)C)n2)cc1 | inconclusive: 29.1 µM [cytotoxic, single point] |  |
| C[C@H](CO)N1C[C@H](C)[C@H](CN(C)Cc2ccncc2)Oc2ncc(C#CC3CC3)cc2C1=O |  | inactive: -13.2% |
| O=C1c2c(-c3ccc(Br)cc3)noc2CCN1Cc1cn(Cc2cccnc2)nn1 | inconclusive: 29.1 µM [cytotoxic, single point] |  |
| O=C(CC(=O)c1ccccn1)c1ccccc1 | inconclusive: 29.1 µM [cytotoxic, single point] |  |
| Cn1cc(Cl)c(C(=O)OCC(=O)Nc2ccccc2)n1 |  | inactive: 16.2% |
| COc1ccc(C)cc1NC(=O)C(=O)NCC(c1cccnc1)N1CCc2ccccc21 (centres undefined) | inconclusive: 2.59 µM [cytotoxic, partial curve, poor fit] |  |
| Cc1ccccc1Cn1cc(S(=O)(=O)CC(=O)Nc2nccs2)c2ccccc21 | inconclusive: 32.6 µM [cytotoxic, partial curve, poor fit] |  |
| CCOc1ccc(/C=C/C(=O)OC(C)C(=O)NC2CCCCC2C)cc1OC (centres undefined) |  | inactive: 0% |
| Cc1cccc(C(C(=O)NC2CCCC2)N(C(=O)c2csnn2)C2CC2)c1 (centres undefined) | inconclusive: 18.4 µM [rising, partial curve] |  |
| CN(C)CCNC(=O)CN1C(=O)COc2ccc(S(=O)(=O)N3CCCC3)cc21 |  | inactive: -2.2% |
| CCC(c1nnc(SC(C)C(=O)NC2CC2)n1-c1ccc(OC)cc1)N(C)C (centres undefined) |  | inactive: -1.47% |
| CN(C)C(=O)C(OC(=O)c1ccc2ccccc2n1)c1ccccc1 (centres undefined) | inconclusive: 11.6 µM [rising, partial curve, poor fit] |  |
| O[C@H]1C[C@H](c2ccccc2)N(CC2CCCCC2)C[C@@H]1n1cc(C2CC2)nn1 | inconclusive: 9.2 µM [cytotoxic, partial curve, poor fit] |  |
| COc1ccc(OCC(=O)c2c(O)c3ccccc3oc2=O)cc1 | inconclusive: 29.1 µM [cytotoxic, single point] |  |
| Cc1ccc(S(=O)(=O)N2CCN(c3ncnc4scc(-c5ccccc5)c34)CC2)cc1 | inconclusive: 29.1 µM [cytotoxic, single point] |  |
| O=C1CC(c2ccccc2)Sc2ccccc2N1Cc1ccc(F)cc1 (centres undefined) | inconclusive: 16.4 µM [cytotoxic, single point] |  |
| O=C(O)C(c1ccccc1)N1C(=O)/C(=C\c2ccc(-c3ccccc3Cl)o2)SC1=S (centres undefined) |  | inactive: 4.92% |
| CN(Cc1ccccc1)C(=O)COc1cc(Cl)ccc1Cl |  | inactive: -4.89% |
| O=C(CCl)c1ccc2c(c1)CCN2C(=O)C1CCCCC1 | inconclusive: 18.4 µM [cytotoxic, single point] |  |
| CCOC(=O)c1c(N)sc(C(=O)Nc2ccccc2)c1C | inconclusive: 23.1 µM [cytotoxic, partial curve, poor fit] |  |

| Structure (SMILES) | Potency | activity change, negative = cytotoxic |
| --- | --- | --- |
| O=C(CCl)Nc1cn(-c2ccccc2)nc1-c1ccccc1 | inconclusive: 23.1 µM [cytotoxic, single point] |  |
| CCCCOc1ccc(CNC(=O)c2cccc(NC(=O)N3CCSc4ncccc43)c2)cc1 | inconclusive: 29.1 µM [cytotoxic, single point] |  |
| Cc1ccc(CNC(=O)c2ccc([N+](=O)[O-])o2)cc1 | inconclusive: 20.6 µM [cytotoxic, single point] |  |
| CCCCc1c(C)nc(Nc2ccc(OC)cc2)[nH]c1=O |  | inactive: -3.11% |
| CCCCN(C)c1c(C)nc2ccc(C(=O)NCc3cccs3)cn12 |  | inactive: -6.38% |
| Cc1nc(N2CCN(Cc3ccc(Cl)cc3)CC2)c2oc3ccccc3c2n1 |  | inactive: 1.96% |
| CC(=O)Nc1ccc(N2C(=O)CSC2c2c(F)cccc2Cl)cc1 (centres undefined) | inconclusive: 20 µM [cytotoxic, partial curve, poor fit] |  |
| COc1ccc2c(c1)c(CC(=O)Nc1ccc(C)cc1)c(C)n2C(=O)c1ccc(Cl)cc1 | inconclusive: 13 µM [cytotoxic, single point] |  |
| Cc1cccc(N2CCN(C(c3ccccc3)c3nnnn3CC3CCCO3)CC2)c1C (centres undefined) | inconclusive: 29.1 µM [cytotoxic, single point] |  |
| CCn1c(-c2cccn(Cc3ccccc3)c2=O)n[nH]c1=S |  | inactive: 0% |
| CN(C)c1ccc(/C=C(\C#N)c2ccccc2)cc1 | inconclusive: 2.59 µM [cytotoxic, partial curve, poor fit] |  |
| CCc1ccccc1NC(=O)CN(C)C(=O)Cn1ncc(Cl)c(Cl)c1=O | inconclusive: 29.1 µM [cytotoxic, single point] |  |
| COc1ccccc1NC(=S)N(Cc1cccnc1)Cc1ccccc1Cl | inconclusive: 29.1 µM [rising, single point] |  |
| CCCCNC(=O)c1onc(CSc2ccc(Cl)cc2)c1C(=O)O | inconclusive: 20.6 µM [cytotoxic, single point] |  |
| Cc1ccccc1OCC(=O)NNC(=S)NC(=O)c1ccco1 | inconclusive: 14.1 µM [cytotoxic, partial curve, poor fit] |  |
| COc1c(F)c(F)c(C(=O)Nc2ccc(N3CCN(Cc4ccccc4)CC3)cc2)c(F)c1F | inconclusive: 35.5 µM [cytotoxic, single point] |  |
| COc1cccc(OCCn2cc(/C=N/NC(=O)c3ccncc3)c3ccccc32)c1 | inconclusive: 29.1 µM [cytotoxic, single point] |  |
| Cc1csc2ncnc(NCCc3ccccn3)c12 | inconclusive: 0.731 µM [cytotoxic, full curve, poor fit] |  |
| CN1CCCC(CC2Oc3ccccc3Sc3ccccc32)C1 (centres undefined) | inconclusive: 32.6 µM [cytotoxic, partial curve, poor fit] |  |
| O=C(N/N=C/c1ccccn1)c1ccc([N+](=O)[O-])cc1Cl |  | inactive: 2.52% |
| C=CCNC(=S)N/N=C/c1ccc(-c2cc(Cl)ccc2Cl)o1 |  | inactive: 8.61% |
| CCCS(=O)(=O)c1nc(S(=O)(=O)c2ccc(C)cc2)c(N2CCN(CC)CC2)s1 |  | inactive: -28.1% |
| COc1ccc(N2CCN(C(CNS(=O)(=O)c3ccc(C)cc3)c3ccccc3)CC2)cc1 (centres undefined) | inconclusive: 20.6 µM [cytotoxic, partial curve, poor fit] |  |

Some values from the list.
Value for `CN(C)C(=O)C(OC(=O)c1ccc2ccccc2n1)c1ccccc1` (centres undefined) under Potency: inconclusive: 11.6 µM [rising, partial curve, poor fit]
Value for `Cc1nc(N2CCN(Cc3ccc(Cl)cc3)CC2)c2oc3ccccc3c2n1` under activity change, negative = cytotoxic: inactive: 1.96%
Value for `COc1cccc(OCCn2cc(/C=N/NC(=O)c3ccncc3)c3ccccc32)c1` under Potency: inconclusive: 29.1 µM [cytotoxic, single point]
Value for `Cc1cccc(C(C(=O)NC2CCCC2)N(C(=O)c2csnn2)C2CC2)c1` (centres undefined) under Potency: inconclusive: 18.4 µM [rising, partial curve]

(cont.)

| Structure (SMILES) | Potency | activity change, negative = cytotoxic |
| --- | --- | --- |
| O=C(CCNC(=O)c1ccco1)NCCc1c[nH]c2ccccc12 |  | inactive: -5.73% |
| O=C(NC(=S)N(CCc1ccccc1)CCc1ccccc1)c1ccco1 | inconclusive: 14.6 µM [cytotoxic, partial curve, poor fit] |  |
| O=C(CCCc1nc(-c2ccc(Cl)cc2)no1)NC1CCCCC1 | inconclusive: 7.31 µM [cytotoxic, partial curve] |  |
| CCCCc1c(-c2cccc(F)c2)ncn1CCc1ccccc1OC | inconclusive: 29.1 µM [cytotoxic, single point] |  |
| CN(C)c1ccc(/C=C2/C[N+](C)(C)C/C(=C/c3ccc(N(C)C)cc3)C2=O)cc1 | active: 16.4 µM |  |
| Cc1ccc(C(=O)/C=C/c2ccccc2)o1 | inconclusive: 29.1 µM [cytotoxic, single point] |  |
| O=C(CNC(=S)N(CCCN1CCOCC1)Cc1cccs1)NCc1ccc(Cl)cc1 |  | inactive: -10.9% |
| Cc1ccc(-c2c[n+](CC(=O)Nc3cc(=O)n(C)c(=O)n3C)c3n2CCC3)cc1 | inconclusive: 18.4 µM [cytotoxic, partial curve, poor fit] |  |
| O=C(NCC1CCCO1)c1ccc2c(=O)n(CC3CCCO3)c(=S)[nH]c2c1 (centres undefined) |  | inactive: 1.19% |
| Cc1c(C#N)c(NC(=O)CCl)n(Cc2cccs2)c1C | inconclusive: 14.6 µM [cytotoxic, partial curve, poor fit] |  |
| CCCCCC(O)(c1ccc(OC)cc1)C(CN1CCOCC1)c1ccccc1 (centres undefined) | inconclusive: 20.6 µM [cytotoxic, single point] |  |
| O=C(Nc1ccc(Nc2ccccc2)cc1)c1ccc(Br)o1 | inconclusive: 32.6 µM [cytotoxic, single point] |  |
| O=[N+]([O-])c1ccc(Cl)c2cccnc12 | inconclusive: 29.1 µM [cytotoxic, single point] |  |
| CC(C)c1c(C#N)c(N)nc(SCC(=O)c2cc3ccccc3oc2=O)c1C#N | inconclusive: 16.4 µM [cytotoxic, partial curve] |  |
| COc1ccc(-n2c(SCC(N)=O)nc3sc4c(c3c2=O)CCC4)cc1 | inconclusive: 29.1 µM [cytotoxic, single point] |  |
| CC1(C)Cc2c(sc3c2c(=N)n(Cc2ccco2)c(=O)n3Cc2ccccc2)CO1 |  | inactive: 17.6% |
| CC(=O)c1c(C)oc2ccc(N(C(=O)Oc3ccccc3)S(=O)(=O)c3ccc(Cl)cc3)cc12 |  | inactive: 25% |
| COC(=O)c1cn(C(=O)c2ccc(F)cc2)c2ccccc12 |  | inactive: 0.317% |
| COc1ccc(CNC(=O)CSc2nc3ccc(N)cc3s2)cc1 | inconclusive: 29.1 µM [rising, single point] |  |
| O=C1NN=C(CSc2n[nH]c(=S)s2)CS1 |  | inactive: -15.7% |
| Cc1nc2ccccc2c(=O)n1/N=C/c1cn(-c2ccccc2)nc1-c1cccs1 | inconclusive: 29.1 µM [cytotoxic, single point] |  |
| Cc1nc(C)c(-c2ccc(SCC(=O)Nc3ccccc3)nn2)s1 | inconclusive: 29.1 µM [rising, single point] |  |
| CN(C)CCNC(=O)c1sc2nc(-c3ccccc3)cc(C(F)(F)F)c2c1N | inconclusive: 32.6 µM [cytotoxic, partial curve, poor fit] |  |
